Data from PubChem BioAssay AID2685 (National Center for Advancing Translational Sciences (NCATS), 2010).
The list shows a part of the results. Further columns of the screen follow, without active or inactive calls. The list favours compounds with an active or inconclusive main result. Potencies come from curve fits of mixed quality, noted in brackets.

Assay: qHTS Assay for Lipid Storage Modulators in Drosophila S3 Cells;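 on cell number change: cells counted by Cell Tracker Red CMTPX staining in the red channel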
Conditions: BODIPY lipid droplet fluorescence, 18-24 h; for cell number change: measured here: cell count max response, cells fed with added oleic acid
Outline: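 Drosophila S3 cells loaded with oleic acid (400 uM, as added) and compounds at several concentrations; lipid droplets imaged by 488-nm laser-scanning cytometry, 500–530 nm intensity and object ratio to cell channel. Percent activity normalized to 20 uM Triacsin C.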

[1] = measured here: lipid fluorescence (Fed channel) AC50, cells fed with added oleic acid
[2] = measured here: cell number channel AC50, cells fed with added oleic acid

| Structure (SMILES) | cell number change [%] | AC50 [1] | AC50 [2] |
| --- | --- | --- | --- |
| CC(C)c1ccc(NC2CCCN(C(=O)c3ccsc3)C2)cc1 (stereo not drawn) | 4.86 | 29.1 µM [falling, single point] | – |
| O=C(Nc1ncccc1Cl)c1ccccc1F | 10.2 | 0.517 µM [falling, full curve, poor fit] | – |
| CCOC(=O)C1CCN(C(=O)CCc2c(C)nc3cc(-c4ccccc4)nn3c2C)CC1 | 13.6 | – | – |
| Cc1sc(NC(=O)c2cccc([N+](=O)[O-])c2)c(C(N)=O)c1-c1ccc(C(C)(C)C)cc1 | 1.76 | 29.1 µM [falling, partial curve, poor fit] | – |
| O=C(NCCc1ccco1)C(=O)NCC1OCCCN1S(=O)(=O)c1cc(F)ccc1F (stereo not drawn) | 8.8 | 29.1 µM [rising, single point] | – |
| CC(=O)Nc1ccn(-c2ccccc2)n1 | -31.6 | 29.1 µM [falling, single point] | 11.6 µM [falling, partial curve, poor fit] |
| CSc1nc(Oc2ccc(Cl)cc2)c2sccc2n1 | 50.5 | – | 23.1 µM [rising, single point] |
| CCC(C)(C)n1nnnc1C(c1cc2ccc(C)cc2[nH]c1=O)N(Cc1cccnc1)Cc1ccco1 (stereo not drawn) | – | 0.58 µM [falling, single point] | – |
| Cc1ccc(-n2c(C)nn(Cc3ccc([N+](=O)[O-])cc3)c2=O)cc1 | -0.865 | 0.316 µM [falling, partial curve, poor fit] | 0.631 µM [falling, single point] |
| CCc1nnc(NC(=O)CSc2nc3ccc(OC)cc3[nH]2)s1 | 5.8 | 4.61 µM [falling, single point] | 6.51 µM [falling, single point] |
| CCCCc1ccc(-c2ccc(Br)cc2O)nc1 | 28.3 | – | 0.731 µM [falling, full curve] |
| Cc1cc2ncn(CC3CC3(Cl)Cl)c2cc1C (stereo not drawn) | 18.4 | 2.31 µM [rising, single point] | – |
| CCCCCN(C(=O)CCC(=O)OCC(=O)N(C)C1CCCCC1)c1c(N)n(CCCC)c(=O)[nH]c1=O | 18.5 | – | – |
| CCOC(=O)C1=C(O)/C(=C/c2ccc(-c3ccccc3C(=O)O)o2)SC1=Nc1ccc(C)cc1 | -4.54 | 18.4 µM [falling, single point] | – |
| Cc1nnc(N2CCN(Cc3ccccc3)CC2)[nH]c1=O | -4.26 | 5.8 µM [falling, full curve, poor fit] | – |
| COc1ccc(CCn2c(=O)[nH]c3cc(C(=O)N4CCN(c5ccccc5)CC4)ccc3c2=O)cc1OC | -33.2 | 0.116 µM [falling, full curve, poor fit] | 0.103 µM [falling, full curve, poor fit] |

Limited to AC50 [2] (2 entries from above):
Structure (SMILES) | AC50 [2]
CC(=O)Nc1ccn(-c2ccccc2)n1 | 11.6 µM [falling, partial curve, poor fit]
CSc1nc(Oc2ccc(Cl)cc2)c2sccc2n1 | 23.1 µM [rising, single point]
